Assay results published in patent publication US8513394B2, “Saccharide fluorescent substrates, preparation method and uses thereof” (Commissariat a l'Energie Atomique, priority 2005, dated 2013).

Test: Emission spectra after excitation at 600 nm: inhibition of the fluorophore's fluorescence in the intact substrate
Format: physicochemical
Conditions: excitation 600 nm

Substance | inhibition of the fluorescence of the fluorophore (compared with Alexa Fluor 633 alone) | inhibition of the fluorescence of the fluorophore (compared with Cy5 alone)
Gal(N-QSY® 21)-Alexa Fluoro 633 [compound of formula (8a)] | 99.2% | –
Gal(N-Cy5)-QSY® 21 [compound of formula (8b)] | – | 99.8%
